The results in this text go back to patent US8653283B2, “Anticancer agents” (The Regents of The University of California, priority 2009, dated 2014).

This data set has as its system HCT-116 cells. The data set can be described thus: Cellular uptake and subcellular localization by fluorescence microscopy. The data set is classed as cell-based, human. As to conditions: 10 μM. As for the experimental part:
HCT-116 cells (ATCC CCL-247) were cultured in Dulbecco's modification of Eagle's medium (DMEM) with 4.5 g L^−1 glucose, […], and 5% heat inactivated fetal calf serum (FCS) in glass-bottom dishes. Fluorescent images were collected on a Leica (Wetzlar, Germany) DMI6000 inverted confocal microscope with a Yokogawa (Tokyo, Japan) spinning disk confocal head, Orca ER High Resolution B&W Cooled CCD camera (6.45 μm/pixel at 1×) (Hamamatsu, Sewickley, Pa.), Plan Apochromat 40×/1.25 na and 63×/1.4 na objective, and a Melles Griot (Carlsbad, Calif.) Argon/Krypton 100 mW air-cooled laser for 488, 568, and 647 nm excitations. Confocal z-stacks were acquired in all experiments. Co-staining was conducted by treating cells exposed to 1 to either Syto 60 (nucleus), LysoTracker Red DND-99 (lysosomes), BODIPY TR glibenclamide (endoplasmic reticulum), or MitoTracker Red 580 (mitochondria) for 20 min and washing the cells three times with media and collecting images in two colors.
Cellular uptake and localization of 1 in HCT-116 tumor cells was then evaluated using fluorescence microscopy. Fortunately, spirohexenolide A (1) was natively fluorescent, with an excitation maximum λmax=435 nm and emission maximum at λmax=466 nm (FIGS. 14 and 15). HCT-116 cells were treated with 10 μM 1 in DMEM containing 10% FCS, 100 U/mL penicillin-G, and 100 μg/mL streptomycin and analyzed by fluorescence microscopy. […] Within 6-12 h, fluorescence from 1 concentrated within vesicles surrounding the nucleus and remained in these structures (FIG. 4b). This staining could not be washed from the cells by repetitive incubation with media and remained consistent thereafter (FIG. 4c).
HCT-116 cells (ATCC CCL-247) were cultured in Dulbecco's modification of Eagle's medium (DMEM) with 4.5 g L^−1 glucose, 4.5 g L^−1 L-glutamine and 5% heat inactivated fetal calf serum (FCS) in glass-bottom dishes. […] Image in FIG. 7c was collected with fluorescence from DNA by staining with SYTO-60 (excitation at 647 nm and emission at 692±40 nm), actin with FITC-phalloidin (excitation at 488 nm and emission at 524±40 nm), and microtubules with BODIPY 564/570 paclitaxel (excitation at 568 nm and emission at 593±40 nm).
The cellular uptake of localization of 1 in HCT-116 tumor cells was then evaluated using fluorescence microscopy. […] HCT-116 cells were treated with 10 μM 1 in DMEM containing 10% FCS, 100 U/mL penicillin-G and 100 μg/mL streptomycin and analyzed by fluorescence microscopy. […]
The uptake and subcellular localization of probes 3 and 4 to spirohexenolide A (1) in HCT-116 cells were then compared. […] HCT-116 cells were treated with 10 μM 1 in DMEM containing 10% FCS, 100 U/mL penicillin-G, and 100 μg/mL streptomycin and analyzed by fluorescence microscopy. […]

On to spirohexenolide A, for which the cellular uptake result is “readily uptaken”. Also, the subcellular localization result (listed as 1) is on record as “localization occurred in the lysosomes”. Besides, the subcellular localization result (listed as compound 1) is listed as “localizes within the lysosomes”. In addition, where the note is “listed as spirohexenolide A (1)”, the subcellular localization result is “localized with punctuate distribution in a subcellular organelle between the Golgi apparatus and the nucleus”.
